From article PMC11761745
Results are given in words; binding and its absence hold for the method and conditions named. Binding seen in cells or lysates may run through a third protein. Some results given as binding are weak or reduced against the parent protein; the word gives no strength.

Target: Fat mass and obesity-associated protein (FTO) (human (endogenous in KG1a)) (UniProt Q9C0B1)
Assay: co-IP; KG1a cell lysate incubated with anti-FTO antibody overnight at 4 °C, protein A/G agarose 12 h at 4 °C, PBS wash, Western blotting

B1: O-GlcNAc transferase (OGT) (enzyme, UniProt O15294 1-1046)
chain: MASSVGNVADSTEPTKRMLSFQGLAELAHREYQAGDFEAAERHCMQLWRQEPDNTGVLLLLSSIHFQCRRLDRSAHFSTLAIKQNPLLAEAYSNLGNVYKERGQLQEAIEHYRHALRLKPDFIDGYINLAAALVAAGDMEGAVQAYVSALQYNPDLYCVRSDLGNLLKALGRLEEAKACYLKAIETQPNFAVAWSNLGCVFNAQGEIWLAIHHFEKAVTLDPNFLDAYINLGNVLKEARIFDRAVAAYLRALSLSPNHAVVHGNLACVYYEQGLIDLAIDTYRRAIELQPHFPDAYCNLANALKEKGSVAEAEDCYNTALRLCPTHADSLNNLANIKREQGNIEEAVRLYRKALEVFPEFAAAHSNLASVLQQQGKLQEALMHYKEAIRISPTFADAYSNMGNTLKEMQDVQGALQCYTRAIQINPAFADAHSNLASIHKDSGNIPEAIASYRTALKLKPDFPDAYCNLAHCLQIVCDWTDYDERMKKLVSIVADQLEKNRLPSVHPHHSMLYPLSHGFRKAIAERHGNLCLDKINVLHKPPYEHPKDLKLSDGRLRVGYVSSDFGNHPTSHLMQSIPGMHNPDKFEVFCYALSPDDGTNFRVKVMAEANHFIDLSQIPCNGKAADRIHQDGIHILVNMNGYTKGARNELFALRPAPIQAMWLGYPGTSGALFMDYIITDQETSPAEVAEQYSEKLAYMPHTFFIGDHANMFPHLKKKAVIDFKSNGHIYDNRIVLNGIDLKAFLDSLPDVKIVKMKCPDGGDNADSSNTALNMPVIPMNTIAEAVIEMINRGQIQITINGFSISNGLATTQINNKAATGEEVPRTIIVTTRSQYGLPEDAIVYCNFNQLYKIDPSTLQMWANILKRVPNSVLWLLRFPAVGEPNIQQYAQNMGLPQNRIIFSPVAPKEEHVRRGQLADVCLDTPLCNGHTTGMDVLWAGTPMVTMPGETLASRVAASQLTCLGCLELIAKNRQEYEDIAVKLGTDLEYLKKVRGKVWKQRISSPLFNTKQYTMELERLYLQMWEHYAAGNKPDHMIKPVEVTESA
With B1 the binding was “binds”.
